According to US6815187:
These are yes or no findings as the source states them, for the method shown. Some binding calls cover weakened binding; strength is not graded here.

Target: syndecan-4 cytoplasmic tail peptide with a phosphorylated Ser (S4c-P)
Test: self-association; size-exclusion chromatography (Sephadex G-50) of 300 µM peptide with 350 µM PIP2

With RMKKKDEGSYDLGKKPIYKKAPTNEFYA (phosphorylated Ser (the single Ser of the peptide, Ser183 of syndecan-4)) [syndecan-4 cytoplasmic tail peptide with a phosphorylated Ser (S4c-P)] the binding was “binds”.
